From PMC6454061 come the findings set out here.

Common to all, as to experiment: FRET or BRET; mVenus- and mCherry-tagged enzyme constructs co-transfected in COS-7 cells, fixed with 4% PFA, FRET quantified by high content imaging (Operetta); normoxic cells as the reference (100%); cells also compared after moderate hypoxia (5% O2, 4-24 h) or 3-10 mM DTT; mutants given as percent of wild type
In assay [1] the target is T1, β1,4-galactosyltransferase B4GalT-I (UniProt P15291).
T1 sequence: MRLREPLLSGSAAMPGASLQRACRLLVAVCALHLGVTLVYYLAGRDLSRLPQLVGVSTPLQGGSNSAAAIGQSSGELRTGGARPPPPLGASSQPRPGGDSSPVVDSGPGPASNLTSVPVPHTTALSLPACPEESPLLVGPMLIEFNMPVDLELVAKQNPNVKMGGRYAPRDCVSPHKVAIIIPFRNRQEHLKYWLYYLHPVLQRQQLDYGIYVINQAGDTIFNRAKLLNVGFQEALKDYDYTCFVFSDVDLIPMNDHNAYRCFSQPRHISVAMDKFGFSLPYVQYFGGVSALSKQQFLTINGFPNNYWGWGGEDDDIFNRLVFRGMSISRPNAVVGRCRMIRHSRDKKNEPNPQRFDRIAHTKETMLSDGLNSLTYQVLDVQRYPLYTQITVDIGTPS

In assay [2] the target is α-2,6-sialyltransferase ST6Gal-I, wild type (human) (UniProt P15907).
Assay [3] concerns the target ST6Gal-I cysteine mutant C406A (human) (UniProt P15907).
Assay [4] deals with ST6Gal-I double cysteine mutant (C353A-C406A) (human) (UniProt P15907).
The target in assay [5] is ST6Gal-I cysteine mutant C353A (human) (UniProt P15907).
Another assay concerns the target T2, GlcNAcT-II (UniProt Q10469).
T2 sequence: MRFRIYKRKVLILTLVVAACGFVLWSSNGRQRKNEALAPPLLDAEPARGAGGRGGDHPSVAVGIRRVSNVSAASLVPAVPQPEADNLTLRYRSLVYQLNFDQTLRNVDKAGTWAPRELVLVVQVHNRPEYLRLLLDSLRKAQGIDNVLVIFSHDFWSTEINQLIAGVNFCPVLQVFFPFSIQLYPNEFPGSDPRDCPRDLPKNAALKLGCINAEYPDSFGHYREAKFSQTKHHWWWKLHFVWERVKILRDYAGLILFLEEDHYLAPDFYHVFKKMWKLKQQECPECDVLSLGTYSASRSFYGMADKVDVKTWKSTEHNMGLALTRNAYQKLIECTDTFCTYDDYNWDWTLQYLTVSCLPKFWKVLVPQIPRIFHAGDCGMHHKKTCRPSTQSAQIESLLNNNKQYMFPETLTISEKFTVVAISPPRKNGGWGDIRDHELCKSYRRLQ

Results are given in words; binding and its absence hold for the method and conditions named. Binding seen in cells or lysates may run through a third protein. Some results given as binding are weak or reduced against the parent protein; the word gives no strength.

B1: α-2,6-sialyltransferase ST6Gal-I, wild type (enzyme, UniProt P15907 89-406)
chain: PEASFQVWNKDSSSKNLIPRLQKIWKNYLSMNKYKVSYKGPGPGIKFSAEALRCHLRDHVNVSMVEVTDFPFNTSEWEGYLPKESIRTKAGPWGRCAVVSSAGSLKSSQLGREIDDHDAVLRFNGAPTANFQQDVGTKTTIRLMNSQLVTTEKRFLKDSLYNEGILIVWDPSVYHSDIPKWYQNPDYNFFNNYKTYRKLHPNQPFYILKPQMPWELWDILQEISPEEIQPNPPSSGMLGIIIMMTLCDQVDIYEFLPSKRKTDVCYYYQKFFDSACTMGAYHPLLYEKNLVKHLNQGTDEDIYLLGKATLPGFRTIHC
In the case of B1, the binding result in assay [1] and in assay [2] was “binds” each time.

B2: ST6Gal-I cysteine mutant C406A (enzyme, UniProt P15907 89-406)
chain: PEASFQVWNKDSSSKNLIPRLQKIWKNYLSMNKYKVSYKGPGPGIKFSAEALRCHLRDHVNVSMVEVTDFPFNTSEWEGYLPKESIRTKAGPWGRCAVVSSAGSLKSSQLGREIDDHDAVLRFNGAPTANFQQDVGTKTTIRLMNSQLVTTEKRFLKDSLYNEGILIVWDPSVYHSDIPKWYQNPDYNFFNNYKTYRKLHPNQPFYILKPQMPWELWDILQEISPEEIQPNPPSSGMLGIIIMMTLCDQVDIYEFLPSKRKTDVCYYYQKFFDSACTMGAYHPLLYEKNLVKHLNQGTDEDIYLLGKATLPGFRTIHA
On to B2, for which the binding entry in assay [1] and in assay [3] was “binds” in each case.

B3: ST6Gal-I double cysteine mutant (C353A-C406A) (enzyme, UniProt P15907 89-406)
chain: PEASFQVWNKDSSSKNLIPRLQKIWKNYLSMNKYKVSYKGPGPGIKFSAEALRCHLRDHVNVSMVEVTDFPFNTSEWEGYLPKESIRTKAGPWGRCAVVSSAGSLKSSQLGREIDDHDAVLRFNGAPTANFQQDVGTKTTIRLMNSQLVTTEKRFLKDSLYNEGILIVWDPSVYHSDIPKWYQNPDYNFFNNYKTYRKLHPNQPFYILKPQMPWELWDILQEISPEEIQPNPPSSGMLGIIIMMTLCDQVDIYEFLPSKRKTDVAYYYQKFFDSACTMGAYHPLLYEKNLVKHLNQGTDEDIYLLGKATLPGFRTIHA
As for B3, the binding result in assay [4] is “binds”.

B4: ST6Gal-I cysteine mutant C353A (enzyme, UniProt P15907 89-406)
chain: PEASFQVWNKDSSSKNLIPRLQKIWKNYLSMNKYKVSYKGPGPGIKFSAEALRCHLRDHVNVSMVEVTDFPFNTSEWEGYLPKESIRTKAGPWGRCAVVSSAGSLKSSQLGREIDDHDAVLRFNGAPTANFQQDVGTKTTIRLMNSQLVTTEKRFLKDSLYNEGILIVWDPSVYHSDIPKWYQNPDYNFFNNYKTYRKLHPNQPFYILKPQMPWELWDILQEISPEEIQPNPPSSGMLGIIIMMTLCDQVDIYEFLPSKRKTDVAYYYQKFFDSACTMGAYHPLLYEKNLVKHLNQGTDEDIYLLGKATLPGFRTIHC
On to B4, for which the binding entry in assay [1] and in assay [5] was “binds” in each case.

B5: ST3Gal-III sialyltransferase (enzyme, UniProt Q11203 1-375)
chain: MGLLVFVRNLLLALCLFLVLGFLYYSAWKLHLLQWEEDSNSVVLSFDSAGQTLGSEYDRLGFLLNLDSKLPAELATKYANFSEGACKPGYASALMTAIFPRFSKPAPMFLDDSFRKWARIREFVPPFGIKGQDNLIKAILSVTKEYRLTPALDSLRCRRCIIVGNGGVLANKSLGSRIDDYDIVVRLNSAPVKGFEKDVGSKTTLRITYPEGAMQRPEQYERDSLFVLAGFKWQDFKWLKYIVYKERVSASDGFWKSVATRVPKEPPEIRILNPYFIQEAAFTLIGLPFNNGLMGRGNIPTLGSVAVTMALHGCDEVAVAGFGYDMSTPNAPLHYYETVRMAAIKESWTHNIQREKEFLRKLVKARVITDLSSGI
For B5, in assay [1], the binding entry is listed as “binds”.

B6: GlcNAcT-I (enzyme, UniProt P26572 1-445)
chain: MLKKQSAGLVLWGAILFVAWNALLLLFFWTRPAPGRPPSVSALDGDPASLTREVIRLAQDAEVELERQRGLLQQIGDALSSQRGRVPTAAPPAQPRVPVTPAPAVIPILVIACDRSTVRRCLDKLLHYRPSAELFPIIVSQDCGHEETAQAIASYGSAVTHIRQPDLSSIAVPPDHRKFQGYYKIARHYRWALGQVFRQFRFPAAVVVEDDLEVAPDFFEYFRATYPLLKADPSLWCVSAWNDNGKEQMVDASRPELLYRTDFFPGLGWLLLAELWAELEPKWPKAFWDDWMRRPEQRQGRACIRPEISRTMTFGRKGVSHGQFFDQHLKFIKLNQQFVHFTQLDLSYLQREAYDRDFLARVYGAPQLQVEKVRTNDRKELGEVRVQYTGRDSFKAFAKALGVMDDLKSGVPRAGYRGIVTFQFRGRRVHLAPPLTWEGYDPSWN
For the molecule B6, the binding entry with GlcNAcT-II was “binds”.

B7: β1,4-galactosyltransferase B4GalT-I (enzyme, UniProt P15291 1-398)
chain: MRLREPLLSGSAAMPGASLQRACRLLVAVCALHLGVTLVYYLAGRDLSRLPQLVGVSTPLQGGSNSAAAIGQSSGELRTGGARPPPPLGASSQPRPGGDSSPVVDSGPGPASNLTSVPVPHTTALSLPACPEESPLLVGPMLIEFNMPVDLELVAKQNPNVKMGGRYAPRDCVSPHKVAIIIPFRNRQEHLKYWLYYLHPVLQRQQLDYGIYVINQAGDTIFNRAKLLNVGFQEALKDYDYTCFVFSDVDLIPMNDHNAYRCFSQPRHISVAMDKFGFSLPYVQYFGGVSALSKQQFLTINGFPNNYWGWGGEDDDIFNRLVFRGMSISRPNAVVGRCRMIRHSRDKKNEPNPQRFDRIAHTKETMLSDGLNSLTYQVLDVQRYPLYTQITVDIGTPS
As to B7, in assay [1], the binding entry was “binds”.
